Source: publication doi:10.1101/2023.08.26.554759
These are yes or no findings as the source states them, for the method shown. In cells and extracts the contact can be indirect. Some entries that bind do so weakly or less than the wild type.

Chains of the proteins cited; added tags and fusions are not shown.
UniProt Q14974: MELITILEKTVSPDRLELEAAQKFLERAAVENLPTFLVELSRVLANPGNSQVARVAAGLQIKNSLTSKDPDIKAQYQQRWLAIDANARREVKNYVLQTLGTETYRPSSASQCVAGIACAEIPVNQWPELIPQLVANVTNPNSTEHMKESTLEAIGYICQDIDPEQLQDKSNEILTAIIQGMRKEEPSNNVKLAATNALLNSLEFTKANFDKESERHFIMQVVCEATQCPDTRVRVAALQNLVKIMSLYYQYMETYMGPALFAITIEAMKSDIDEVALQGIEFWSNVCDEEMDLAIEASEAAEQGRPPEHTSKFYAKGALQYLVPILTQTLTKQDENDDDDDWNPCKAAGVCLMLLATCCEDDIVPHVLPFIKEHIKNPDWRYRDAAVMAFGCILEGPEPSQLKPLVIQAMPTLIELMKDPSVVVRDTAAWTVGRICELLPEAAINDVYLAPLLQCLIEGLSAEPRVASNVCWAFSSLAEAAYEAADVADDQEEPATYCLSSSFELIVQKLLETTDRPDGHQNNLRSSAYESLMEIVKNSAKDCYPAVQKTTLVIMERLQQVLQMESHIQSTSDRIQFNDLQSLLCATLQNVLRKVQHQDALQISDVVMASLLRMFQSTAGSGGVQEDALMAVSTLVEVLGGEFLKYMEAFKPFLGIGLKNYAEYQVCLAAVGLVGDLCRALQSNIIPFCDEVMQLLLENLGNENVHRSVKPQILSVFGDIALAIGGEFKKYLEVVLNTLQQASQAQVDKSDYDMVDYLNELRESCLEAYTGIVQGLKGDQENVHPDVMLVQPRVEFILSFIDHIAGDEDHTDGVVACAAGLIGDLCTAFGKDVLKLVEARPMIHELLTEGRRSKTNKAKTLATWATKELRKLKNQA
UniProt P35222: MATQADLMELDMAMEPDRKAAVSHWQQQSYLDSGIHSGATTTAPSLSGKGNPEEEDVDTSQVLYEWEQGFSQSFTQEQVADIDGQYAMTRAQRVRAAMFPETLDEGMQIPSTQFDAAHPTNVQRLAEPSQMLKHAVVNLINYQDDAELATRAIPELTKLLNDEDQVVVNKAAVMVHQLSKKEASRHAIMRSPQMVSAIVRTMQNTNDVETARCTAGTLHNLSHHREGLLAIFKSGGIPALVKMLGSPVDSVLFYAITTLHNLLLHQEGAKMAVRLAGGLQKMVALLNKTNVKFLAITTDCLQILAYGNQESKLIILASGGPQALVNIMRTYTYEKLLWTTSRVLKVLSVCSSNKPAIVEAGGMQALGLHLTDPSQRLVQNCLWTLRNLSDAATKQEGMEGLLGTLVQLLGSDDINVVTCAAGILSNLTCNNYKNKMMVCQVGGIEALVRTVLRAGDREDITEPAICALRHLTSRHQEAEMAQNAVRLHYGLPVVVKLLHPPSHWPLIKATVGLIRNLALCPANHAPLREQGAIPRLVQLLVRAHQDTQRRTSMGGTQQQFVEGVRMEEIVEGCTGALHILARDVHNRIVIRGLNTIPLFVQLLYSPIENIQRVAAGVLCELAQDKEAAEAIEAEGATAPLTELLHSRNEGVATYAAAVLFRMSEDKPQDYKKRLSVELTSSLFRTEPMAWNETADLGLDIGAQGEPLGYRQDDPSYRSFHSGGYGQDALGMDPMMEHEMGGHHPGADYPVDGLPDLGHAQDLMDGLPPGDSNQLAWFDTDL

Molecular target: importin β (KPNB1) (human (endogenous in HeLa)) (UniProt Q14974)
Experiment: co-IP

- binding: binds
Substance: β-catenin (CTNNB1) (from UniProt P35222 1-781)
